{"source": "PubChem BioAssay AID1508597 (Cure First, 2020)", "purpose": "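Genes whose silencing sensitises or protects ovarian cancer cells against rucaparib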 (primary screen)", "cell system": "human ovarian carcinoma lines grown from tumours: OCI-P5x (papillary serous) and OCI-C5x (clear cell)", "reagents": "siRNA pool against human genes, 1.25 pmol siRNA per well", "time to read-out": "72 h or 96 h, depending on the cell culture", "challenge": "rucaparib 20 µM (about IC30) or vehicle, present until read-out", "rucaparib or vehicle": "Vehicle", "cell line": "OCI-C5x (clear cell)", "detection": "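ATP luminescence measured at 72 or 96 h according to the culture, then normalised and expressed as percent viability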", "direction": "viability, normalised: higher = more viable cells remaining", "call rule": "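a well counts as a hit if its normalised viability is under 80 percent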", "calls": "active = viability under 80%; inactive = viability 80% or more", "note": "This is an unselected part of the about 2,100 reagents, in one setting of the screen. 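Calls flag viability under 80% in either arm, not effects specific to rucaparib; the reference for percent is not stated.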 A reagent listed more than once was tested more than once; the source does not tell the runs apart. Not given: the 100% reference."}
{"gene symbol": "LIMK2 (GeneID 3985)", "technical replicate": "1", "viability, normalised (%)": 93.3, "Outcome": "inactive"}
{"gene symbol": "LIMK2 (GeneID 3985)", "technical replicate": "1", "viability, normalised (%)": 90.1, "Outcome": "inactive"}
{"gene symbol": "LIMK2 (GeneID 3985)", "technical replicate": "2", "viability, normalised (%)": 75, "Outcome": "active"}
{"gene symbol": "LIMK2 (GeneID 3985)", "technical replicate": "2", "viability, normalised (%)": 66.6, "Outcome": "active"}
{"gene symbol": "LIMK2 (GeneID 3985)", "technical replicate": "3", "viability, normalised (%)": 79.3, "Outcome": "active"}
{"gene symbol": "LIMK2 (GeneID 3985)", "technical replicate": "3", "viability, normalised (%)": 67.6, "Outcome": "active"}
{"gene symbol": "PCM1 (GeneID 5108)", "technical replicate": "1", "viability, normalised (%)": 25, "Outcome": "active"}
{"gene symbol": "PCM1 (GeneID 5108)", "technical replicate": "2", "viability, normalised (%)": 20.8, "Outcome": "active"}
{"gene symbol": "PCM1 (GeneID 5108)", "technical replicate": "3", "viability, normalised (%)": 29, "Outcome": "active"}
{"gene symbol": "RNF40 (GeneID 9810)", "technical replicate": "1", "viability, normalised (%)": 34.1, "Outcome": "active"}
{"gene symbol": "RNF40 (GeneID 9810)", "technical replicate": "2", "viability, normalised (%)": 34.4, "Outcome": "active"}
{"gene symbol": "RNF40 (GeneID 9810)", "technical replicate": "3", "viability, normalised (%)": 45.4, "Outcome": "active"}
{"gene symbol": "MED1 (GeneID 5469)", "technical replicate": "1", "viability, normalised (%)": 56.8, "Outcome": "active"}
{"gene symbol": "MED1 (GeneID 5469)", "technical replicate": "2", "viability, normalised (%)": 56.5, "Outcome": "active"}
{"gene symbol": "MED1 (GeneID 5469)", "technical replicate": "3", "viability, normalised (%)": 58.4, "Outcome": "active"}
{"gene symbol": "NPR2 (GeneID 4882)", "technical replicate": "1", "viability, normalised (%)": 47, "Outcome": "active"}
{"gene symbol": "NPR2 (GeneID 4882)", "technical replicate": "2", "viability, normalised (%)": 52.9, "Outcome": "active"}
{"gene symbol": "NPR2 (GeneID 4882)", "technical replicate": "3", "viability, normalised (%)": 46.4, "Outcome": "active"}
{"gene symbol": "BNIP3 (GeneID 664)", "technical replicate": "1", "viability, normalised (%)": 36.9, "Outcome": "active"}
{"gene symbol": "BNIP3 (GeneID 664)", "technical replicate": "2", "viability, normalised (%)": 30.4, "Outcome": "active"}
{"gene symbol": "BNIP3 (GeneID 664)", "technical replicate": "3", "viability, normalised (%)": 33.9, "Outcome": "active"}

3 entries from above in another layout.
| gene symbol | technical replicate | viability, normalised (%) | Outcome |
| --- | --- | --- | --- |
| LIMK2 (GeneID 3985) | 2 | 75 | active |
| LIMK2 (GeneID 3985) | 2 | 66.6 | active |
| LIMK2 (GeneID 3985) | 3 | 79.3 | active |

The listing continues:
{"gene symbol": "SIRT4 (GeneID 23409)", "technical replicate": "1", "viability, normalised (%)": 30.6, "Outcome": "active"}
{"gene symbol": "SIRT4 (GeneID 23409)", "technical replicate": "2", "viability, normalised (%)": 29.5, "Outcome": "active"}
{"gene symbol": "SIRT4 (GeneID 23409)", "technical replicate": "3", "viability, normalised (%)": 40.5, "Outcome": "active"}
{"gene symbol": "ZNF830 (GeneID 91603)", "technical replicate": "1", "viability, normalised (%)": 94.5, "Outcome": "inactive"}
{"gene symbol": "ZNF830 (GeneID 91603)", "technical replicate": "2", "viability, normalised (%)": 48, "Outcome": "active"}
{"gene symbol": "ZNF830 (GeneID 91603)", "technical replicate": "3", "viability, normalised (%)": 50.5, "Outcome": "active"}
{"gene symbol": "MAP4K3 (GeneID 8491)", "technical replicate": "1", "viability, normalised (%)": 70.8, "Outcome": "active"}
{"gene symbol": "MAP4K3 (GeneID 8491)", "technical replicate": "2", "viability, normalised (%)": 50.4, "Outcome": "active"}
{"gene symbol": "MAP4K3 (GeneID 8491)", "technical replicate": "3", "viability, normalised (%)": 85.1, "Outcome": "inactive"}
{"gene symbol": "FEN1 (GeneID 2237)", "technical replicate": "1", "viability, normalised (%)": 69.2, "Outcome": "active"}
{"gene symbol": "FEN1 (GeneID 2237)", "technical replicate": "2", "viability, normalised (%)": 63.1, "Outcome": "active"}
{"gene symbol": "FEN1 (GeneID 2237)", "technical replicate": "3", "viability, normalised (%)": 51.6, "Outcome": "active"}
{"gene symbol": "NODAL (GeneID 4838)", "technical replicate": "1", "viability, normalised (%)": 62.2, "Outcome": "active"}
{"gene symbol": "NODAL (GeneID 4838)", "technical replicate": "2", "viability, normalised (%)": 37.4, "Outcome": "active"}
{"gene symbol": "NODAL (GeneID 4838)", "technical replicate": "3", "viability, normalised (%)": 51.7, "Outcome": "active"}
{"gene symbol": "PARP12 (GeneID 64761)", "technical replicate": "1", "viability, normalised (%)": 33.9, "Outcome": "active"}
{"gene symbol": "PARP12 (GeneID 64761)", "technical replicate": "2", "viability, normalised (%)": 29, "Outcome": "active"}
{"gene symbol": "PARP12 (GeneID 64761)", "technical replicate": "3", "viability, normalised (%)": 31.7, "Outcome": "active"}
{"gene symbol": "PIP4K2C (GeneID 79837)", "technical replicate": "1", "viability, normalised (%)": 52.6, "Outcome": "active"}
{"gene symbol": "PIP4K2C (GeneID 79837)", "technical replicate": "2", "viability, normalised (%)": 52.9, "Outcome": "active"}
{"gene symbol": "PIP4K2C (GeneID 79837)", "technical replicate": "3", "viability, normalised (%)": 41.5, "Outcome": "active"}
